The results in this text go back to paper PMC5389562.

In the data set the target is T1, mCherry-U2AF35 (UniProt Q01081).
T1 sequence (looked up, limits assumed): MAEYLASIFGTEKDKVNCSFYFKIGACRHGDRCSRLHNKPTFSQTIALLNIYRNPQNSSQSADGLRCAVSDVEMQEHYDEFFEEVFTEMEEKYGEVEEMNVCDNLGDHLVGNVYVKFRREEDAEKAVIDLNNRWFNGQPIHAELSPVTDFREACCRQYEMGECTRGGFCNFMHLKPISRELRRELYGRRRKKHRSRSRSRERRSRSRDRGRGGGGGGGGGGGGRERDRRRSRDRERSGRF
In words: competition with a labelled probe. The settings on record: -ATP, oligo reduces double occupancy of GloC-2x3'ss; HEK293T nuclear extract expressing fusion proteins, preincubated 15 min with ATP/phosphocreatine or ATP-depleted at 30 C; pre-mRNA 62.5 nM; protein in an extract; protein details: N-terminal mCherry.

The exact form of at least one protein or probe is not confirmed. Where cells or extracts were used, other partners may take part. At least one verdict was read from the data and is not stated in words by the source. Tags and fusion partners may be left off the protein sequences shown.

“CCUUCUUCUUUUUCCUACAGCUC [globin 3'ss RNA oligo]”: the binding result was “binds”.
